# Reference: PMC6773851, “Identification of protein-protein and ribonucleoprotein complexes containing Hfq” (Scientific Reports, 2019)
# Amino acid sequences for entries named in this document (tags omitted).
# UniProt P0A6X3: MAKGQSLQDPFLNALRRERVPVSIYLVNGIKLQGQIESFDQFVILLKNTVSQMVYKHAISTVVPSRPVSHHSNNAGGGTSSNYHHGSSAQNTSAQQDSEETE
# UniProt P0ABB0: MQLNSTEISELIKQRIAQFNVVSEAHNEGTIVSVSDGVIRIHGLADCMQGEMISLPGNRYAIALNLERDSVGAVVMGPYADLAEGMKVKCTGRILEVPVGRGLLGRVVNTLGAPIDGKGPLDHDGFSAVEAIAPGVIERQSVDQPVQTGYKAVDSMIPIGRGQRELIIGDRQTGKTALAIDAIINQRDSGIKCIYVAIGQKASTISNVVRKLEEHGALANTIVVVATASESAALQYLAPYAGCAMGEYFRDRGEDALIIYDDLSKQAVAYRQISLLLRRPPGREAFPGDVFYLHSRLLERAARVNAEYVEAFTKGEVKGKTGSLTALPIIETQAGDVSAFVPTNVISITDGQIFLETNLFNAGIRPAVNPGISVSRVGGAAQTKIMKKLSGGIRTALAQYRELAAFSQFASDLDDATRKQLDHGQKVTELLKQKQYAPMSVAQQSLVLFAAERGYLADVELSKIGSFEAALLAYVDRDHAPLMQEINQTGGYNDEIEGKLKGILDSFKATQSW
# UniProt P0ABB4: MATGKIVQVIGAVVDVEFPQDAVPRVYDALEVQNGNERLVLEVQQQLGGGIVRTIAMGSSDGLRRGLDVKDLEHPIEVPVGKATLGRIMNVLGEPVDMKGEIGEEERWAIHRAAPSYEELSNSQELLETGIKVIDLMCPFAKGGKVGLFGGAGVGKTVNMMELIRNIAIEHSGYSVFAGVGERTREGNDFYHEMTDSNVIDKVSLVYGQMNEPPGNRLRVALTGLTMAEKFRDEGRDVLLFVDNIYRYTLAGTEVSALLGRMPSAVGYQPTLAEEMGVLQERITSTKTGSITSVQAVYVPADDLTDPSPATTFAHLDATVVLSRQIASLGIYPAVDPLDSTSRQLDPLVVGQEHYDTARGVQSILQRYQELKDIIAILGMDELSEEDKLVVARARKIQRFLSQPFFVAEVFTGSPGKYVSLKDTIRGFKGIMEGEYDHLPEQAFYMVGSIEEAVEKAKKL
# UniProt P0A6H5: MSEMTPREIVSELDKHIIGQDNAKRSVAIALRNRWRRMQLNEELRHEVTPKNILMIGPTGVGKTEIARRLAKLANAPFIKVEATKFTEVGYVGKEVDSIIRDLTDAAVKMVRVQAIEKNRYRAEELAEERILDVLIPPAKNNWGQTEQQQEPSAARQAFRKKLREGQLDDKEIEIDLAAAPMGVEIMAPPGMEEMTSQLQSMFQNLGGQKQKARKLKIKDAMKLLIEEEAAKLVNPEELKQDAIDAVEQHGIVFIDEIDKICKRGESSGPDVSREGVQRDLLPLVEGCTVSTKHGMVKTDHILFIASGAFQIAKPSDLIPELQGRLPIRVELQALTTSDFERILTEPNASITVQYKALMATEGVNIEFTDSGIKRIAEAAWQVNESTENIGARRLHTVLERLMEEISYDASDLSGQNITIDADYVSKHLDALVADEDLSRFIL
# UniProt P0A6Y8: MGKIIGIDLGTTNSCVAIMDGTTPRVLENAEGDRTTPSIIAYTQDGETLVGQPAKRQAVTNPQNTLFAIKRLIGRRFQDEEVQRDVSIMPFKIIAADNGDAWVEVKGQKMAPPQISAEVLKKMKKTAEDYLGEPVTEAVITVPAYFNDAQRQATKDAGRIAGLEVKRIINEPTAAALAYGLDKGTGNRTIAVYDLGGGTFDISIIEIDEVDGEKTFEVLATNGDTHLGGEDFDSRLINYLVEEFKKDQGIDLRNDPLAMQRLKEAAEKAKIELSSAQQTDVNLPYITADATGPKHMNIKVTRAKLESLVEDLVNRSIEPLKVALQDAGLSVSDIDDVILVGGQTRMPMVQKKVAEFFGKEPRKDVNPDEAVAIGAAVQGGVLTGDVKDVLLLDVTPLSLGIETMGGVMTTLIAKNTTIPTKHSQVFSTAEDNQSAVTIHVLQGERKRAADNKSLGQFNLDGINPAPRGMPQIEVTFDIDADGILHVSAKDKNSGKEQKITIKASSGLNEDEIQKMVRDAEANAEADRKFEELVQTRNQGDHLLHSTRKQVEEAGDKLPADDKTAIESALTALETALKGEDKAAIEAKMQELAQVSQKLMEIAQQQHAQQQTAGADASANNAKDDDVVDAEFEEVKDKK
# UniProt P0ABK5: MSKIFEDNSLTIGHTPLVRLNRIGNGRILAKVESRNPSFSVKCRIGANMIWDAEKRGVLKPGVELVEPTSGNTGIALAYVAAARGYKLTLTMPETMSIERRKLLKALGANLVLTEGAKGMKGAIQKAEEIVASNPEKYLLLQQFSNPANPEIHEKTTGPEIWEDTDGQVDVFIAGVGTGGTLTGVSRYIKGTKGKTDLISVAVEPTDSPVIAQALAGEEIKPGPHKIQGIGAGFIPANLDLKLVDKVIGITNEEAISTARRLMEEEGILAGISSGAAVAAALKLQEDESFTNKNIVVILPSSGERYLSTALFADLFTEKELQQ
# UniProt P0AES4: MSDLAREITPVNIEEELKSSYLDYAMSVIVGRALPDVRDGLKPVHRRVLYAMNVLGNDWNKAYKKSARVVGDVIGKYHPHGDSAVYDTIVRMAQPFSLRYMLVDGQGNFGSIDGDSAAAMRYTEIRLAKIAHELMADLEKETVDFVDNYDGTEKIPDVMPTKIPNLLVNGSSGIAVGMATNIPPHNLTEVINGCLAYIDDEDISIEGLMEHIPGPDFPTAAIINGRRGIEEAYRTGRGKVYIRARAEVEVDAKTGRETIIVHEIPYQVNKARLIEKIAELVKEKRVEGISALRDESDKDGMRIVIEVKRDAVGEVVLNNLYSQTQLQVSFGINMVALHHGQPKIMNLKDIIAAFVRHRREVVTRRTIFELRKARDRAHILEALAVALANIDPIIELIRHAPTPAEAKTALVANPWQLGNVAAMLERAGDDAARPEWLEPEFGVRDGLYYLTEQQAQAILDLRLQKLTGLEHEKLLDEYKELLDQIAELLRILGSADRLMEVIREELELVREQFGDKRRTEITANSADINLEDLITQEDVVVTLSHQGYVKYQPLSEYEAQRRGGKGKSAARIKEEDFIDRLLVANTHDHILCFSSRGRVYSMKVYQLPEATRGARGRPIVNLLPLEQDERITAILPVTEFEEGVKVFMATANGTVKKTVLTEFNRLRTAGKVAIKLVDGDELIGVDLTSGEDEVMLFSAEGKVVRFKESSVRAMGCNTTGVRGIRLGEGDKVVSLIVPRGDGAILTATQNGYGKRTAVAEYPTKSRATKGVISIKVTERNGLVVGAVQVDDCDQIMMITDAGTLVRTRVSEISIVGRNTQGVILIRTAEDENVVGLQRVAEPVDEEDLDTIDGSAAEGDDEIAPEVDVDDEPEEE
# UniProt P0ACF0: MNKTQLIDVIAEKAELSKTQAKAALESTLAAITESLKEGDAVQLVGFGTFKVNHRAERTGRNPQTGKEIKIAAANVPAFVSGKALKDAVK
# UniProt P0A9M0: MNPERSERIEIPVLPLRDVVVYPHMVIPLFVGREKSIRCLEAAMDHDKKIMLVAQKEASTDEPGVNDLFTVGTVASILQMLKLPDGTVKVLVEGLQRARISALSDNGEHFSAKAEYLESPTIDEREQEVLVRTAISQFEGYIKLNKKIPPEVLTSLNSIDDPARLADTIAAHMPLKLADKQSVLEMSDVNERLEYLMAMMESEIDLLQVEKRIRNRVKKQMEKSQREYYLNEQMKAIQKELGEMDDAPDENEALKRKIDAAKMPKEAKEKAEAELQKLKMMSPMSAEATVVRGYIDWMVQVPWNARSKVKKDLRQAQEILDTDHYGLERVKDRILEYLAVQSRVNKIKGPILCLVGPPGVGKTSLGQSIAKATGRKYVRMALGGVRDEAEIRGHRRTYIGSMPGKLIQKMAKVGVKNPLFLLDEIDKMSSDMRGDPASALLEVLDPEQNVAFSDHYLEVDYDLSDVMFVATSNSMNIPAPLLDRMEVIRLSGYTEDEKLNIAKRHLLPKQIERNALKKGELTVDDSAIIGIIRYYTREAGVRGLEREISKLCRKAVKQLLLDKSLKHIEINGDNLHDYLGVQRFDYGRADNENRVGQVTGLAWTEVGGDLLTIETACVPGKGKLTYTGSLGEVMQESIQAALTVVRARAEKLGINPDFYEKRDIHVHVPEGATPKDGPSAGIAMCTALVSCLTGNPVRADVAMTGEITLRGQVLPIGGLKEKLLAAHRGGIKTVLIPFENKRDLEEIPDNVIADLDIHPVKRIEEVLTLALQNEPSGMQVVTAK
# UniProt P24215: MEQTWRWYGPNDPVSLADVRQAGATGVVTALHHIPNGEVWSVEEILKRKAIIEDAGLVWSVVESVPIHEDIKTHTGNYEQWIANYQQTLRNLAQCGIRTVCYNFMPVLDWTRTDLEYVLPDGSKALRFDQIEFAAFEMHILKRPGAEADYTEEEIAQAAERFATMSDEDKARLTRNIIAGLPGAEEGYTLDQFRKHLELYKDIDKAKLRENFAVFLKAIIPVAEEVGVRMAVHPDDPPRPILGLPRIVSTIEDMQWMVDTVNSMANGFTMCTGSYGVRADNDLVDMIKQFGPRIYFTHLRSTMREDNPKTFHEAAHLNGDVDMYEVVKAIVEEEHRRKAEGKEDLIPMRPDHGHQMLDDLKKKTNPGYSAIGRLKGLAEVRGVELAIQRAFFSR
# UniProt P0AFG8: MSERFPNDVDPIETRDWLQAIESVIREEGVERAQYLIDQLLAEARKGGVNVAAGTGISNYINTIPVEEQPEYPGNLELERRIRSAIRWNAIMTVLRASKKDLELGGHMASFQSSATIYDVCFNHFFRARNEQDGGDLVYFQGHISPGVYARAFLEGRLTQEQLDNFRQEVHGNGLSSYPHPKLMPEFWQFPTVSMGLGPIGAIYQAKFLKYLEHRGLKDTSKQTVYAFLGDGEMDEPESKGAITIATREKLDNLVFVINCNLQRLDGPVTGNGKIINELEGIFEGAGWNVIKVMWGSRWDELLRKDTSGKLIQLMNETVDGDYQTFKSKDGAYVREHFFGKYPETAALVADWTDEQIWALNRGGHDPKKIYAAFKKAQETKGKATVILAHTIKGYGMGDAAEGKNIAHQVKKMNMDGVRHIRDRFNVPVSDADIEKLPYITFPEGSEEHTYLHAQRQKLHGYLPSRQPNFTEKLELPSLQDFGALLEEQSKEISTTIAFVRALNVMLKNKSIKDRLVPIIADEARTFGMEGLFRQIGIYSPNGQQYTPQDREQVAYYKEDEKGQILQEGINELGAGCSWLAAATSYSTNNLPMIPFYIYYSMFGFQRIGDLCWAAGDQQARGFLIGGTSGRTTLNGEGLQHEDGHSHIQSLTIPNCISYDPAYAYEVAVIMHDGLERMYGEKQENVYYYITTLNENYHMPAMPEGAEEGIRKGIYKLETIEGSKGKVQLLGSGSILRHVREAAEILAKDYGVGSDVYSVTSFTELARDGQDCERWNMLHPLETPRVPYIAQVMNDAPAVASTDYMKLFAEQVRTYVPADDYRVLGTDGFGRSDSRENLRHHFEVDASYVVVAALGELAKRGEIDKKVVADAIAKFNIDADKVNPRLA
# UniProt P0A7G6: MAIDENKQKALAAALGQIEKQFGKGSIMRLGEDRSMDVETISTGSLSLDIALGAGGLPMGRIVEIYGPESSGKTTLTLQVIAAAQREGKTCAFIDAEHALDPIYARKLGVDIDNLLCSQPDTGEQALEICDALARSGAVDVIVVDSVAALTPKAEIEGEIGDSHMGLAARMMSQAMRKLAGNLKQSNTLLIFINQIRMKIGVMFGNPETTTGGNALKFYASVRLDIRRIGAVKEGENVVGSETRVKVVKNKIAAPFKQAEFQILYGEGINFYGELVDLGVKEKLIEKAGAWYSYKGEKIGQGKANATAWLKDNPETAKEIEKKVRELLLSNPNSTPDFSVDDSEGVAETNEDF
# UniProt P0AFZ3: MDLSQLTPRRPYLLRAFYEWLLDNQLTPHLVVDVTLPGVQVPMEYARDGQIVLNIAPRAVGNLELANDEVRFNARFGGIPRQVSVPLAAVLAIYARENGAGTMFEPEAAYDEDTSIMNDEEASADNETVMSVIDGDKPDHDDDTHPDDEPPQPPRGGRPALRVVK
# UniProt P0A853: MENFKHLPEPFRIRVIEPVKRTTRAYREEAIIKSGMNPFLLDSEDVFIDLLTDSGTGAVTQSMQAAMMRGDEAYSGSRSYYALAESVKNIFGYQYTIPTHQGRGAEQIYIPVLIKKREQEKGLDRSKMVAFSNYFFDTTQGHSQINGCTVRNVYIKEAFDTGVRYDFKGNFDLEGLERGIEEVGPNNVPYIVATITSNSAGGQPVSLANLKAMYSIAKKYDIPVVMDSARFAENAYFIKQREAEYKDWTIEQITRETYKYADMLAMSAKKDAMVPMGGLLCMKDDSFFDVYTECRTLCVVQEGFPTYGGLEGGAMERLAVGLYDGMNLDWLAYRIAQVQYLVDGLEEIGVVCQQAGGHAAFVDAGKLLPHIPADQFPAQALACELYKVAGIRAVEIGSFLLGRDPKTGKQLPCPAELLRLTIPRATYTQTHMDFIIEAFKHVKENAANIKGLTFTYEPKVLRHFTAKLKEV
# These are yes or no findings as the source states them, for the method shown. Binding seen in cells or lysates may run through a third protein. Here binding means that the protein was enriched with, or labelled near, the bait; the list need not be complete.
# Target: HfqTT (TAP-tagged Hfq) (E. coli) (UniProt P0A6X3)
# Assay: affinity purification with mass spectrometry; TAP-tag: HfqTT (or the TAP-tag peptide as control) as bait in extracts of IBhfq95Δhfq, exponential and stationary phase; IgG Sepharose, TEV cleavage, calmodulin beads; half of each sample treated with 0.1 µg/µl RNase A for 30 min at 37 °C before the calmodulin beads; an interaction called RNA dependent when the number of peptides fell by more than 30% after RNase A
molecule,measurement,value
ATP synthase subunit alpha (from UniProt P0ABB0 1-513),binding,binds
ATP synthase subunit beta (from UniProt P0ABB4 1-460),binding,binds
ATP-dependent protease ATPase subunit hslU (from UniProt P0A6H5 1-443),binding,binds
Chaperone protein dnaK (from UniProt P0A6Y8 1-638),binding,binds
Cysteine synthase A (from UniProt P0ABK5 1-323),binding,binds
DNA gyrase subunit A (from UniProt P0AES4 1-875),binding,binds
Elongation Factor Tu (from UniProt P0CE47),binding,binds
HUα (DbhA) (from UniProt P0ACF0 1-90),binding,binds
Lon protease (from UniProt P0A9M0 1-784),binding,binds
Mannonate dehydratase (from UniProt P24215 1-394),binding,binds
Pyruvate deshydrogenase E1 component (from UniProt P0AFG8 1-887),binding,binds
RecA (from UniProt P0A7G6 1-353),binding,binds
Stringent starvation protein B (from UniProt P0AFZ3 1-165),binding,binds
Tryptophanase (from UniProt P0A853 1-471),binding,binds
"isocitrate lyase (protein, UniProt P0A9G6 1-434) MKTRTQQIEELQKEWTQPRWEGITRPYSAEDVVKLRGSVNPECTLAQLGAAKMWRLLHGESKKGYINSLGALTGGQALQQAKAGIEAVYLSGWQVAADANLAASMYPDQSLYPANSVPAVVERINNTFRRADQIQWSAGIEPGDPRYVDYFLPIVADAEAGFGGVLNAFELMKAMIEAGAAAVHFEDQLASVKKCGHMGGKVLVPTQEAIQKLVAARLAADVTGVPTLLVARTDADAADLITSDCDPYDSEFITGERTSEGFFRTHAGIEQAISRGLAYAPYADLVWCETSTPDLELARRFAQAIHAKYPGKLLAYNCSPSFNWQKNLDDKTIASFQQQLSDMGYKFQFITLAGIHSMWFNMFDLANAYAQGEGMKHYVEKVQQPEFAAAKDGYTFVSHQQEVGTGYFDKVTTIIQGGTSSVTALTGSTEESQF",binding,binds
"3-oxoacyl-[acyl-carrier-protein] synthase 1 (protein, UniProt P0A953 1-406) MKRAVITGLGIVSSIGNNQQEVLASLREGRSGITFSQELKDSGMRSHVWGNVKLDTTGLIDRKVVRFMSDASIYAFLSMEQAIADAGLSPEAYQNNPRVGLIAGSGGGSPRFQVFGADAMRGPRGLKAVGPYVVTKAMASGVSACLATPFKIHGVNYSISSACATSAHCIGNAVEQIQLGKQDIVFAGGGEELCWEMACEFDAMGALSTKYNDTPEKASRTYDAHRDGFVIAGGGGMVVVEELEHALARGAHIYAEIVGYGATSDGADMVAPSGEGAVRCMKMAMHGVDTPIDYLNSHGTSTPVGDVKELAAIREVFGDKSPAISATKAMTGHSLGAAGVQEAIYSLLMLEHGFIAPSINIEELDEQAAGLNIVTETTDRELTTVMSNSFGFGGTNATLVMRKLKD",binding,binds
"Transcriptional regulatory protein ompR (protein, UniProt P0AA16 1-239) MQENYKILVVDDDMRLRALLERYLTEQGFQVRSVANAEQMDRLLTRESFHLMVLDLMLPGEDGLSICRRLRSQSNPMPIIMVTAKGEEVDRIVGLEIGADDYIPKPFNPRELLARIRAVLRRQANELPGAPSQEEAVIAFGKFKLNLGTREMFREDEPMPLTSGEFAVLKALVSHPREPLSRDKLMNLARGREYSAMERSIDVQISRLRRMVEEDPAHPRYIQTVWGLGYVFVPDGSKA",binding,binds
"DNA-binding protein stpA (protein, UniProt P0ACG1 1-134) MSVMLQSLNNIRTLRAMAREFSIDVLEEMLEKFRVVTKERREEEEQQQRELAERQEKISTWLELMKADGINPEELLGNSSAAAPRAGKKRQPRPAKYKFTDVNGETKTWTGQGRTPKPIAQALAEGKSLDDFLI",binding,binds
"Ethanolamine ammonia-lyase heavy chain (protein, UniProt P0AEJ6 1-453) MKLKTTLFGNVYQFKDVKEVLAKANELRSGDVLAGVAAASSQERVAAKQVLSEMTVADIRNNPVIAYEDDCVTRLIQDDVNETAYNQIKNWSISELREYVLSDETSVDDIAFTRKGLTSEVVAAVAKICSNADLIYGAKKMPVIKKANTTIGIPGTFSARLQPNDTRDDVQSIAAQIYEGLSFGVGDAVIGVNPVTDDVENLSRVLDTIYGVIDKFNIPTQGCVLAHVTTQIEAIRRGAPGGLIFQSICGSEKGLKEFGVELAMLDEARAVGAEFNRIAGENCLYFETGQGSALSAGANFGADQVTMEARNYGLARHYDPFIVNTVVGFIGPEYLYNDRQIIRAGLEDHFMGKLSGISMGCDCCYTNHADADQNLNENLMILLATAGCNYIMGMPLGDDIMLNYQTTAFHDTATVRQLLNLRPSPEFERWLESMGIMANGRLTKRAGDPSLFF",binding,binds
"Bifunctional protein putA (protein, UniProt P09546 1-1320) MGTTTMGVKLDDATRERIKSAATRIDRTPHWLIKQAIFSYLEQLENSDTLPELPALLSGAANESDEAPTPAEEPHQPFLDFAEQILPQSVSRAAITAAYRRPETEAVSMLLEQARLPQPVAEQAHKLAYQLADKLRNQKNASGRAGMVQGLLQEFSLSSQEGVALMCLAEALLRIPDKATRDALIRDKISNGNWQSHIGRSPSLFVNAATWGLLFTGKLVSTHNEASLSRSLNRIIGKSGEPLIRKGVDMAMRLMGEQFVTGETIAEALANARKLEEKGFRYSYDMLGEAALTAADAQAYMVSYQQAIHAIGKASNGRGIYEGPGISIKLSALHPRYSRAQYDRVMEELYPRLKSLTLLARQYDIGINIDAEESDRLEISLDLLEKLCFEPELAGWNGIGFVIQAYQKRCPLVIDYLIDLATRSRRRLMIRLVKGAYWDSEIKRAQMDGLEGYPVYTRKVYTDVSYLACAKKLLAVPNLIYPQFATHNAHTLAAIYQLAGQNYYPGQYEFQCLHGMGEPLYEQVTGKVADGKLNRPCRIYAPVGTHETLLAYLVRRLLENGANTSFVNRIADTSLPLDELVADPVTAVEKLAQQEGQTGLPHPKIPLPRDLYGHGRDNSAGLDLANEHRLASLSSALLNSALQKWQALPMLEQPVAAGEMSPVINPAEPKDIVGYVREATPREVEQALESAVNNAPIWFATPPAERAAILHRAAVLMESQMQQLIGILVREAGKTFSNAIAEVREAVDFLHYYAGQVRDDFANETHRPLGPVVCISPWNFPLAIFTGQIAAALAAGNSVLAKPAEQTPLIAAQGIAILLEAGVPPGVVQLLPGRGETVGAQLTGDDRVRGVMFTGSTEVATLLQRNIASRLDAQGRPIPLIAETGGMNAMIVDSSALTEQVVVDVLASAFDSAGQRCSALRVLCLQDEIADHTLKMLRGAMAECRMGNPGRLTTDIGPVIDSEAKANIERHIQTMRSKGRPVFQAVRENSEDAREWQSGTFVAPTLIELDDFAELQKEVFGPVLHVVRYNRNQLPELIEQINASGYGLTLGVHTRIDETIAQVTGSAHVGNLYVNRNMVGAVVGVQPFGGEGLSGTGPKAGGPLYLYRLLANRPESALAVTLARQDAKYPVDAQLKAALTQPLNALREWAANRPELQALCTQYGELAQAGTQRLLPGPTGERNTWTLLPRERVLCIADDEQDALTQLAAVLAVGSQVLWPDDALHRQLVKALPSAVSERIQLAKAENITAQPFDAVIFHGDSDQLRALCEAVAARDGTIVSVQGFARGESNILLERLYIERSLSVNTAAAGGNASLMTIG",binding,binds
"Transcriptional regulatory protein tyrR (protein, UniProt P07604 1-513) MRLEVFCEDRLGLTRELLDLLVLRGIDLRGIEIDPIGRIYLNFAELEFESFSSLMAEIRRIAGVTDVRTVPWMPSEREHLALSALLEALPEPVLSVDMKSKVDMANPASCQLFGQKLDRLRNHTAAQLINGFNFLRWLESEPQDSHNEHVVINGQNFLMEITPVYLQDENDQHVLTGAVVMLRSTIRMGRQLQNVAAQDVSAFSQIVAVSPKMKHVVEQAQKLAMLSAPLLITGDTGTGKDLFAYACHQASPRAGKPYLALNCASIPEDAVESELFGHAPEGKKGFFEQANGGSVLLDEIGEMSPRMQAKLLRFLNDGTFRRVGEDHEVHVDVRVICATQKNLVELVQKGMFREDLYYRLNVLTLNLPPLRDCPQDIMPLTELFVARFADEQGVPRPKLAADLNTVLTRYAWPGNVRQLKNAIYRALTQLDGYELRPQDILLPDYDAATVAVGEDAMEGSLDEITSRFERSVLTQLYRNYPSTRKLAKRLGVSHTAIANKLREYGLSQKKNEE",binding,binds
"Soluble pyridine nucleotide transhydrogenase (protein, UniProt P27306 1-466) MPHSYDYDAIVIGSGPGGEGAAMGLVKQGARVAVIERYQNVGGGCTHWGTIPSKALRHAVSRIIEFNQNPLYSDHSRLLRSSFADILNHADNVINQQTRMRQGFYERNHCEILQGNARFVDEHTLALDCPDGSVETLTAEKFVIACGSRPYHPTDVDFTHPRIYDSDSILSMHHEPRHVLIYGAGVIGCEYASIFRGMDVKVDLINTRDRLLAFLDQEMSDSLSYHFWNSGVVIRHNEEYEKIEGCDDGVIMHLKSGKKLKADCLLYANGRTGNTDSLALQNIGLETDSRGQLKVNSMYQTAQPHVYAVGDVIGYPSLASAAYDQGRIAAQALVKGEATAHLIEDIPTGIYTIPEISSVGKTEQQLTAMKVPYEVGRAQFKHLARAQIVGMNVGTLKILFHRETKEILGIHCFGERAAEIIHIGQAIMEQKGGGNTIEYFVNTTFNYPTMAEAYRVAALNGLNRLF",binding,binds
"HUβ (DbhB) (protein, UniProt P0ACF4 1-90) MNKSQLIDKIAAGADISKAAAGRALDAIIASVTESLKEGDDVALVGFGTFAVKERAARTGRNPQTGKEITIAAAKVPSFRAGKALKDAVN",binding,binds
"Uncharacterized N-acetyltransferase YhbS (protein, UniProt P63417 1-167) MLIRVEIPIDAPGIDALLRRSFESDAEAKLVHDLREDGFLTLGLVATDDEGQVIGYVAFSPVDVQGEDLQWVGMAPLAVDEKYRGQGLARQLVYEGLDSLNEFGYAAVVTLGDPALYSRFGFELAAHHDLRCRWPGTESAFQVHRLADDALNGVTGLVEYHEHFNRF",binding,binds
